According to article PMC10988300:
These are yes or no findings as the source states them, for the method shown. In cells and extracts the contact can be indirect. These calls come from enrichment with a bait or labelling near it, and not all partners need be listed.

Sequences of proteins named here, by UniProt entry; tags and fusion partners are left off.
UniProt P09429: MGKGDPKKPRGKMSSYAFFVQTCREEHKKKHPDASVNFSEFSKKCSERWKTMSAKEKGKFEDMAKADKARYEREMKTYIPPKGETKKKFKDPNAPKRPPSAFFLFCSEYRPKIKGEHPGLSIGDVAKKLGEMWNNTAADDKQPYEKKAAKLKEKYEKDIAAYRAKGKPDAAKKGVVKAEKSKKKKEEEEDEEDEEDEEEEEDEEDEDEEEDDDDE
UniProt Q96JN8: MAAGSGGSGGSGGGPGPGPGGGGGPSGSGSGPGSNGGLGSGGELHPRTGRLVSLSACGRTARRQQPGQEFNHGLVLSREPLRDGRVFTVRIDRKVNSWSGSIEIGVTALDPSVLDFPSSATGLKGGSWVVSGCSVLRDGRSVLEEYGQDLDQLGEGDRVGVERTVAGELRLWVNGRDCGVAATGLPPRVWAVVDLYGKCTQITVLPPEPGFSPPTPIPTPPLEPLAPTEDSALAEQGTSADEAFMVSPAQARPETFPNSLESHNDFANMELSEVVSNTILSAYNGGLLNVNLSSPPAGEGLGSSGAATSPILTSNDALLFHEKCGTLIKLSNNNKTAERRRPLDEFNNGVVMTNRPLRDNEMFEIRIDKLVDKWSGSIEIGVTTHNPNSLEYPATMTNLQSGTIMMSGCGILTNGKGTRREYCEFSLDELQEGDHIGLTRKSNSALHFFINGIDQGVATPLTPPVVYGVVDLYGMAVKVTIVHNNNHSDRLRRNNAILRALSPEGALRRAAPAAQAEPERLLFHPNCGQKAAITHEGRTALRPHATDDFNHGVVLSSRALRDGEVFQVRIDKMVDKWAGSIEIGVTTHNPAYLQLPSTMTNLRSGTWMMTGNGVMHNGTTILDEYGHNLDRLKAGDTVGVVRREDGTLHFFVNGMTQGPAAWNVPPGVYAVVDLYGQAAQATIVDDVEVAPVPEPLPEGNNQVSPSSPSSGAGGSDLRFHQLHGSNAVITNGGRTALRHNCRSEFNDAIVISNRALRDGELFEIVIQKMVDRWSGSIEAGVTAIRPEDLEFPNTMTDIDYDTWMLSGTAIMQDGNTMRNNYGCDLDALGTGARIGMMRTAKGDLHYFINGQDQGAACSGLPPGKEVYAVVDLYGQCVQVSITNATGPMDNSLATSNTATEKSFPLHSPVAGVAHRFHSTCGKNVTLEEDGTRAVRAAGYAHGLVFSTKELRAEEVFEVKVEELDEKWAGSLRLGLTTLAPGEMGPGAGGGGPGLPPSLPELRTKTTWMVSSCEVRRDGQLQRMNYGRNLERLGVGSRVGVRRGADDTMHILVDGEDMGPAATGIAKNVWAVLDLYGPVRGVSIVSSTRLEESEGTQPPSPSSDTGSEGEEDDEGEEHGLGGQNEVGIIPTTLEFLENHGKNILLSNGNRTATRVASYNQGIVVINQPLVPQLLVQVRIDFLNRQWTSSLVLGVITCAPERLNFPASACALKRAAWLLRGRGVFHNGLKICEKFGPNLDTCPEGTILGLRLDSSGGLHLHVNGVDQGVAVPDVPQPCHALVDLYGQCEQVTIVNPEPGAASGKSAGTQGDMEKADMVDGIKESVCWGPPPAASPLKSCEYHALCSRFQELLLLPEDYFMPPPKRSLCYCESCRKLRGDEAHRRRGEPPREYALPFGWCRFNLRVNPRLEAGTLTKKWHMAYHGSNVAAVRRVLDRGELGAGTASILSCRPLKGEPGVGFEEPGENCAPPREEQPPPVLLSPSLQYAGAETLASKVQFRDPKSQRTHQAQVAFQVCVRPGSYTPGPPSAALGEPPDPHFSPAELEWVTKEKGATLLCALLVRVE

B1: RNA-binding protein 14 (RBM14) (protein, UniProt Q96PK6 1-669)
chain: MKIFVGNVDGADTTPEELAALFAPYGTVMSCAVMKQFAFVHMRENAGALRAIEALHGHELRPGRALVVEMSRPRPLNTWKIFVGNVSAACTSQELRSLFERRGRVIECDVVKDYAFVHMEKEADAKAAIAQLNGKEVKGKRINVELSTKGQKKGPGLAVQSGDKTKKPGAGDTAFPGTGGFSATFDYQQAFGNSTGGFDGQARQPTPPFFGRDRSPLRRSPPRASYVAPLTAQPATYRAQPSVSLGAAYRAQPSASLGVGYRTQPMTAQAASYRAQPSVSLGAPYRGQLASPSSQSAAASSLGPYGGAQPSASALSSYGGQAAAASSLNSYGAQGSSLASYGNQPSSYGAQAASSYGVRAAASSYNTQGAASSLGSYGAQAASYGAQSAASSLAYGAQAASYNAQPSASYNAQSAPYAAQQAASYSSQPAAYVAQPATAAAYASQPAAYAAQATTPMAGSYGAQPVVQTQLNSYGAQASMGLSGSYGAQSAAAATGSYGAAAAYGAQPSATLAAPYRTQSSASLAASYAAQQHPQAAASYRGQPGNAYDGAGQPSAAYLSMSQGAVANANSTPPPYERTRLSPPRASYDDPYKKAVAMSKRYGSDRRLAELSDYRRLSESQLSFRRSPTKSSLDYRRLPDAHSDYARYSGSYNDYLRAAQMHSGYQRRM
B2: interleukin enhancer-binding factor 3 (ILF3) (protein, UniProt Q12906 1-894)
chain: MRPMRIFVNDDRHVMAKHSSVYPTQEELEAVQNMVSHTERALKAVSDWIDEQEKGSSEQAESDNMDVPPEDDSKEGAGEQKTEHMTRTLRGVMRVGLVAKGLLLKGDLDLELVLLCKEKPTTALLDKVADNLAIQLAAVTEDKYEILQSVDDAAIVIKNTKEPPLSLTIHLTSPVVREEMEKVLAGETLSVNDPPDVLDRQKCLAALASLRHAKWFQARANGLKSCVIVIRVLRDLCTRVPTWGPLRGWPLELLCEKSIGTANRPMGAGEALRRVLECLASGIVMPDGSGIYDPCEKEATDAIGHLDRQQREDITQSAQHALRLAAFGQLHKVLGMDPLPSKMPKKPKNENPVDYTVQIPPSTTYAITPMKRPMEEDGEEKSPSKKKKKIQKKEEKAEPPQAMNALMRLNQLKPGLQYKLVSQTGPVHAPIFTMSVEVDGNSFEASGPSKKTAKLHVAVKVLQDMGLPTGAEGRDSSKGEDSAEETEAKPAVVAPAPVVEAVSTPSAAFPSDATAEQGPILTKHGKNPVMELNEKRRGLKYELISETGGSHDKRFVMEVEVDGQKFQGAGSNKKVAKAYAALAALEKLFPDTPLALDANKKKRAPVPVRGGPKFAAKPHNPGFGMGGPMHNEVPPPPNLRGRGRGGSIRGRGRGRGFGGANHGGYMNAGAGYGSYGYGGNSATAGYSQFYSNGGHSGNASGGGGGGGGGSSGYGSYYQGDNYNSPVPPKHAGKKQPHGGQQKPSYGSGYQSHQGQQQSYNQSPYSNYGPPQGKQKGYNHGQGSYSYSNSYNSPGGGGGSDYNYESKFNYSGSGGRSGGNSYGSGGASYNPGSHGGYGGGSGGGSSYQGKQGGYSQSNYNSPGSGQNYSGPPSSYQSSQGGYGRNADHSMNYQYR
B3: pyruvate dehydrogenase E1 component subunit beta (PDHB) (protein, UniProt P11177 31-359)
chain: LQVTVRDAINQGMDEELERDEKVFLLGEEVAQYDGAYKVSRGLWKKYGDKRIIDTPISEMGFAGIAVGAAMAGLRPICEFMTFNFSMQAIDQVINSAAKTYYMSGGLQPVPIVFRGPNGASAGVAAQHSQCFAAWYGHCPGLKVVSPWNSEDAKGLIKSAIRDNNPVVVLENELMYGVPFEFPPEAQSKDFLIPIGKAKIERQGTHITVVSHSRPVGHCLEAAAVLSKEGVECEVINMRTIRPMDMETIEASVMKTNHLVTVEGGWPQFGVGAEICARIMEGPAFNFLDAPAVRVTGADVPMPYAKILEDNSIPQVKDIIFAIKKTLNI
B4: USP15, hit of the HMGB1 IP-MS (enzyme, UniProt Q9Y4E8 1-981)
chain: MAEGGAADLDTQRSDIATLLKTSLRKGDTWYLVDSRWFKQWKKYVGFDSWDKYQMGDQNVYPGPIDNSGLLKDGDAQSLKEHLIDELDYILLPTEGWNKLVSWYTLMEGQEPIARKVVEQGMFVKHCKVEVYLTELKLCENGNMNNVVTRRFSKADTIDTIEKEIRKIFSIPDEKETRLWNKYMSNTFEPLNKPDSTIQDAGLYQGQVLVIEQKNEDGTWPRGPSTPKSPGASNFSTLPKISPSSLSNNYNNMNNRNVKNSNYCLPSYTAYKNYDYSEPGRNNEQPGLCGLSNLGNTCFMNSAIQCLSNTPPLTEYFLNDKYQEELNFDNPLGMRGEIAKSYAELIKQMWSGKFSYVTPRAFKTQVGRFAPQFSGYQQQDCQELLAFLLDGLHEDLNRIRKKPYIQLKDADGRPDKVVAEEAWENHLKRNDSIIVDIFHGLFKSTLVCPECAKISVTFDPFCYLTLPLPMKKERTLEVYLVRMDPLTKPMQYKVVVPKIGNILDLCTALSALSGIPADKMIVTDIYNHRFHRIFAMDENLSSIMERDDIYVFEININRTEDTEHVIIPVCLREKFRHSSYTHHTGSSLFGQPFLMAVPRNNTEDKLYNLLLLRMCRYVKISTETEETEGSLHCCKDQNINGNGPNGIHEEGSPSEMETDEPDDESSQDQELPSENENSQSEDSVGGDNDSENGLCTEDTCKGQLTGHKKRLFTFQFNNLGNTDINYIKDDTRHIRFDDRQLRLDERSFLALDWDPDLKKRYFDENAAEDFEKHESVEYKPPKKPFVKLKDCIELFTTKEKLGAEDPWYCPNCKEHQQATKKLDLWSLPPVLVVHLKRFSYSRYMRDKLDTLVDFPINDLDMSEFLINPNAGPCRYNLIAVSNHYGGMGGGHYTAFAKNKDDGKWYYFDDSSVSTASEDQIVSKAAYVLFYQRQDTFSGTGFFPLDRETKGASAATGIPLESDEDSNDNDNDIENENCMHTN
B5: constitutive coactivator of PPAR-gamma-like protein 1 (FAM120A) (protein, UniProt Q9NZB2 1-1118)
chain: MGVQGFQDYIEKHCPSAVVPVELQKLARGSLVGGGRQRPPQTPLRLLVDADNCLHRLYGGFYTDWVSGGQWNHMLGYLAALAKACFGGNIELFVFFNGALEKARLHEWVKRQGNERQTAQQIVSHVQNKGTPPPKVWFLPPVCMAHCIRLALIRFHVKVAQSIEDHHQEVIGFCRENGFHGLVAYDSDYALCNIPYYFSAHALKLSRNGKSLTTSQYLMHEVAKQLDLNPNRFPIFAALLGNHILPDEDLASFHWSLLGPEHPLASLKVRAHQLVLPPCDVVIKAVADYVRNIQDTSDLDAIAKDVFQHSQSRTDDKVIRFKRAIGYYSATSKPMSFHPPHYLAARPGPFGMPGMVPPHVPPQMLNIPQTSLQAKPVAPQVPSPGGAPGQGPYPYSLSEPAPLTLDTSGKNLTEQNSYSNIPHEGKHTPLYERSSPINPAQSGSPNHVDSAYFPGSSTSSSSDNDEGSGGATNHISGNKIGWEKTGSHSEPQARGDPGDQTKAEGSSTASSGSQLAEGKGSQMGTVQPIPCLLSMPTRNHMDITTPPLPPVAPEVLRVAEHRHKKGLMYPYIFHVLTKGEIKIAVSIEDEANKDLPPAALLYRPVRQYVYGVLFSLAESRKKTERLAFRKNRLPPEFSPVIIKEWAAYKGKSPQTPELVEALAFREWTCPNLKRLWLGKAVEDKNRRMRAFLACMRSDTPAMLNPANVPTHLMVLCCVLRYMVQWPGARILRRQELDAFLAQALSPKLYEPDQLQELKIENLDPRGIQLSALFMSGVDMALFANDACGQPIPWEHCCPWMYFDGKLFQSKLLKASREKTPLIDLCDGQADQAAKVEKMRQSVLEGLSFSRQSHTLPFPPPPALPFYPASAYPRHFGPVPPSQGRGRGFAGVCGFGGPYGETVATGPYRAFRVAAASGHCGAFSGSDSSRTSKSQGGVQPIPSQGGKLEIAGTVVGHWAGSRRGRGGRGPFPLQVVSVGGPARGRPRGVISTPVIRTFGRGGRYYGRGYKNQAAIQGRPPYAASAEEVAKELKSKSGESKSSAMSSDGSLAENGVMAEEKPAPQMNGSTGDARAPSHSESALNNDSKTCNTNPHLNALSTDSACRREAALEAAVLNKEE

Target: High-mobility group box 1 (HMGB1), bait of the co-immunoprecipitation for mass spectrometry (UniProt P09429)
Experiment: affinity purification with mass spectrometry; Co-IP of HMGB1, bands cut from a Coomassie-stained gel, LC-ESL-LTQ-Orbitrap-MS; cells not given

Row | binding | Molecule
1 | binds | neuralized-like protein 4 (NEURL4) (from UniProt Q96JN8 1-1562)
2 | binds | B1
3 | binds | B2
4 | binds | B3
5 | binds | B4
6 | binds | B5
